{"source": "PubChem BioAssay AID1259405 (NCATS, 2018)", "screen": "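Mouse-designed siRNAs used to find CHO productivity engineering targets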 (primary screen)", "system": "Chinese hamster CHO-K1 ovary cells with stable secreted eGFP expression", "reagent": "single siRNA against mouse genes, 0.8 pmol siRNA per well (2 µl of 400 nM stock)", "timing": "3 days", "read-out": "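Per-well intracellular GFP measured by laser scanning cytometry, plus viability from ATP luminescence, each relative to plate median of non-targeting control wells, in %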", "reading the numbers": "GFP, % of control: higher = more GFP per well, higher productivity; viability (ATP), % of control: higher = more viable cells (more ATP)", "call rule": "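Called active when intracellular GFP, relative to negative control, is at or above 120%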", "note": "This is an unselected part of about 50,000 deposited reagents. Of all reagents, about 4,000 (8%) are marked active. 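Mouse siRNA library applied to hamster cells; one well for each siRNA.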"}
{"target": "Twf1 (GeneID 19230)", "PubChem SID": "SID363572264", "GFP, % of control": 60.5, "viability (ATP), % of control": 40.2, "outcome": "inactive"}
{"target": "Twf1 (GeneID 19230)", "PubChem SID": "SID363574024", "GFP, % of control": 91.2, "viability (ATP), % of control": 81.5, "outcome": "inactive"}
{"target": "Cfh (GeneID 12628)", "PubChem SID": "SID363553627", "GFP, % of control": 58.8, "viability (ATP), % of control": 65.9, "outcome": "inactive"}
{"target": "Cfh (GeneID 12628)", "PubChem SID": "SID363561584", "GFP, % of control": 48.9, "viability (ATP), % of control": 43.7, "outcome": "inactive"}
{"target": "Cfh (GeneID 12628)", "PubChem SID": "SID363565322", "GFP, % of control": 99.3, "viability (ATP), % of control": 81.7, "outcome": "inactive"}
{"target": "Plppr5 (GeneID 75769)", "PubChem SID": "SID363547866", "GFP, % of control": 97.4, "viability (ATP), % of control": 94.5, "outcome": "inactive"}
{"target": "Plppr5 (GeneID 75769)", "PubChem SID": "SID363558635", "GFP, % of control": 105, "viability (ATP), % of control": 99.7, "outcome": "inactive"}
{"target": "Plppr5 (GeneID 75769)", "PubChem SID": "SID363560393", "GFP, % of control": 91.2, "viability (ATP), % of control": 97.1, "outcome": "inactive"}
{"target": "Elovl1 (GeneID 54325)", "PubChem SID": "SID363570544", "GFP, % of control": 78.5, "viability (ATP), % of control": 91.9, "outcome": "inactive"}
{"target": "Elovl1 (GeneID 54325)", "PubChem SID": "SID363579344", "GFP, % of control": 76.4, "viability (ATP), % of control": 60.1, "outcome": "inactive"}
{"target": "Elovl1 (GeneID 54325)", "PubChem SID": "SID363583216", "GFP, % of control": 102, "viability (ATP), % of control": 98.6, "outcome": "inactive"}
{"target": "Tnpo3 (GeneID 320938)", "PubChem SID": "SID363574600", "GFP, % of control": 70.9, "viability (ATP), % of control": 57.7, "outcome": "inactive"}
{"target": "Tnpo3 (GeneID 320938)", "PubChem SID": "SID363575656", "GFP, % of control": 57.1, "viability (ATP), % of control": 56.1, "outcome": "inactive"}
{"target": "Tnpo3 (GeneID 320938)", "PubChem SID": "SID363580232", "GFP, % of control": 101, "viability (ATP), % of control": 101, "outcome": "inactive"}
{"target": "Ccdc163 (GeneID 68394)", "PubChem SID": "SID363540563", "GFP, % of control": 52.6, "viability (ATP), % of control": 66.8, "outcome": "inactive"}
{"target": "Ccdc163 (GeneID 68394)", "PubChem SID": "SID363543014", "GFP, % of control": 89.4, "viability (ATP), % of control": 63, "outcome": "inactive"}
{"target": "Ccdc163 (GeneID 68394)", "PubChem SID": "SID363552507", "GFP, % of control": 88.2, "viability (ATP), % of control": 84.1, "outcome": "inactive"}
{"target": "Sfi1 (GeneID 78887)", "PubChem SID": "SID363543375", "GFP, % of control": 107, "viability (ATP), % of control": 104, "outcome": "inactive"}
{"target": "Sfi1 (GeneID 78887)", "PubChem SID": "SID363552868", "GFP, % of control": 17.3, "viability (ATP), % of control": 17.7, "outcome": "inactive"}
{"target": "Sfi1 (GeneID 78887)", "PubChem SID": "SID363558716", "GFP, % of control": 62.6, "viability (ATP), % of control": 72.2, "outcome": "inactive"}
{"target": "Crisp2 (GeneID 22024)", "PubChem SID": "SID363550133", "GFP, % of control": 73.5, "viability (ATP), % of control": 81, "outcome": "inactive"}
{"target": "Crisp2 (GeneID 22024)", "PubChem SID": "SID363564642", "GFP, % of control": 35, "viability (ATP), % of control": 60.2, "outcome": "inactive"}
{"target": "Crisp2 (GeneID 22024)", "PubChem SID": "SID363588187", "GFP, % of control": 120, "viability (ATP), % of control": 117, "outcome": "active"}
{"target": "Nsdhl (GeneID 18194)", "PubChem SID": "SID363569041", "GFP, % of control": 84.4, "viability (ATP), % of control": 79.3, "outcome": "inactive"}
{"target": "Nsdhl (GeneID 18194)", "PubChem SID": "SID363583473", "GFP, % of control": 62, "viability (ATP), % of control": 82, "outcome": "inactive"}
{"target": "Rrp1b (GeneID 72462)", "PubChem SID": "SID363543686", "GFP, % of control": 65.2, "viability (ATP), % of control": 69.1, "outcome": "inactive"}
{"target": "Rrp1b (GeneID 72462)", "PubChem SID": "SID363551422", "GFP, % of control": 46.6, "viability (ATP), % of control": 51.7, "outcome": "inactive"}
{"target": "Rrp1b (GeneID 72462)", "PubChem SID": "SID363559027", "GFP, % of control": 59.1, "viability (ATP), % of control": 50.9, "outcome": "inactive"}
